# The list shows a part of the results. Most values lie at the level of the controls, where differences are scatter.
# Chains of the proteins cited; added tags and fusions are not shown. Lines headed by an entry give the natural chain unless they say otherwise; changes in a name come on top.
# UniProt P03030: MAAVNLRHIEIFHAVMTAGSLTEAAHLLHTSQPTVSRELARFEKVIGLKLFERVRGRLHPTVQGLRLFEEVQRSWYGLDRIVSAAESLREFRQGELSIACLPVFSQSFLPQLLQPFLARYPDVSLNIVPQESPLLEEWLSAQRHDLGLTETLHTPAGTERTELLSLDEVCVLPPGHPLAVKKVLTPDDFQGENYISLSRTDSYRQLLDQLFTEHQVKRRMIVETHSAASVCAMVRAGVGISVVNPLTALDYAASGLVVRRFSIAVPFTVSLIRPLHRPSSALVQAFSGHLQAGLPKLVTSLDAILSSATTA
# UniProt P00903: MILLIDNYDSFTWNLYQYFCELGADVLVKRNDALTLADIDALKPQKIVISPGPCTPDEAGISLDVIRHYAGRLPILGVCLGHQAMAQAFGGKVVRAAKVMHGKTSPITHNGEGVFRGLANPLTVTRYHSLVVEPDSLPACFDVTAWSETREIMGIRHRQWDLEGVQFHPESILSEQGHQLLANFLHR
# UniProt P08660: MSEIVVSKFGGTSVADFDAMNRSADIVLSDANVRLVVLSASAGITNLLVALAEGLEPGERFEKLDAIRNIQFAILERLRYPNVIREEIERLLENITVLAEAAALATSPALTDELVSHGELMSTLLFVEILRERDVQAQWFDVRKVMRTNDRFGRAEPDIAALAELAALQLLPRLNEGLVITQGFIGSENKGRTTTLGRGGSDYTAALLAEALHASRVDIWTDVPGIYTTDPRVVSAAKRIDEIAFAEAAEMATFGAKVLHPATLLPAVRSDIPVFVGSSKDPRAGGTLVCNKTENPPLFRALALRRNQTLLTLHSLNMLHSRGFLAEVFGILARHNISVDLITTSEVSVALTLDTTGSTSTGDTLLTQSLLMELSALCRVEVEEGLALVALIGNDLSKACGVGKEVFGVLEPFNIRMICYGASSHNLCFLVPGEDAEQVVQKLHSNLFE
# UniProt P08245: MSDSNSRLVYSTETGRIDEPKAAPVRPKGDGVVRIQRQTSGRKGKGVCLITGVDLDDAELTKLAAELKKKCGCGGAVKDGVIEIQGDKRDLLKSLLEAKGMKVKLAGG
# UniProt P07117: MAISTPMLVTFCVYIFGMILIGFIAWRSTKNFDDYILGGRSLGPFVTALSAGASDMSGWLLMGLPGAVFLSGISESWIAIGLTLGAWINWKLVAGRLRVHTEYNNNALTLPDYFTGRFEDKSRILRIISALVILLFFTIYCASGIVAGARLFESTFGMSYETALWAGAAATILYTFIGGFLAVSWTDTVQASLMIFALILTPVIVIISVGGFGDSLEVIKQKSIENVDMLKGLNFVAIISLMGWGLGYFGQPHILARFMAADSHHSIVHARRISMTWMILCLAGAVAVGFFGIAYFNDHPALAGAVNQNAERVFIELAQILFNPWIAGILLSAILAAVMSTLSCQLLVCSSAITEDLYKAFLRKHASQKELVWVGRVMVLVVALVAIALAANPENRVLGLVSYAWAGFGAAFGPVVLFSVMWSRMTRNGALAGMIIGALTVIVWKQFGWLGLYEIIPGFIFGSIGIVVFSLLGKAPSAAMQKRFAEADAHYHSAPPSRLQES
# UniProt P06966: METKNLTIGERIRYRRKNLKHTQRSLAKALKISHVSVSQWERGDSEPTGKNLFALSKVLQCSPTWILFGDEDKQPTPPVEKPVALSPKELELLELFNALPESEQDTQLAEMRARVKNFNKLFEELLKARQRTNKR
# UniProt P00579, whole entry: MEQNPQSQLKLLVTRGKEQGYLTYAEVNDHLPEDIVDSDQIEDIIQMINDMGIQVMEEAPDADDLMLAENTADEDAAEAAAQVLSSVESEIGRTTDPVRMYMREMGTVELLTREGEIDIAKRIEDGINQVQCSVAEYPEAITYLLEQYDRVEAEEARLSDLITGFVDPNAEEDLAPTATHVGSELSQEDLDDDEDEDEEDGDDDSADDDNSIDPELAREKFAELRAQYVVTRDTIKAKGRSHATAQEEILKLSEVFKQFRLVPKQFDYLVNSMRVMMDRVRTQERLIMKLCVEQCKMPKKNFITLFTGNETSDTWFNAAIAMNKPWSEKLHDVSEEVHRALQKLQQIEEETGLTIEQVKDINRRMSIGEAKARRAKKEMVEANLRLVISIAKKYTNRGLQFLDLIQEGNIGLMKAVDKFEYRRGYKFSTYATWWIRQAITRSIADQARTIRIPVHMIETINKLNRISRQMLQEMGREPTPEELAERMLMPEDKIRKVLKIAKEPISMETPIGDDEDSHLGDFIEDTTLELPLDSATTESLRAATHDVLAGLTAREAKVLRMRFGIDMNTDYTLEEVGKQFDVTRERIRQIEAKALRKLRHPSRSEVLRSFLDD
# UniProt P02931: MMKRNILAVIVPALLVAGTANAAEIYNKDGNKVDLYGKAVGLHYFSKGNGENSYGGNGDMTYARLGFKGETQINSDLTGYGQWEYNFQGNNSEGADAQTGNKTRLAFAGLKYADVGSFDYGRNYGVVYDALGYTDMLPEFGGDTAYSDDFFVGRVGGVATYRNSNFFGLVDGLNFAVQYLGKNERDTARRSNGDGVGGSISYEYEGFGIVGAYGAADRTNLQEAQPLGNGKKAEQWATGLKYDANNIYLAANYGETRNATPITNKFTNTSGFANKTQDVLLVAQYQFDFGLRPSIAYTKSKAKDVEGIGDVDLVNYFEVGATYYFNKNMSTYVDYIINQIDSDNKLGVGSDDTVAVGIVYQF
# UniProt P00936: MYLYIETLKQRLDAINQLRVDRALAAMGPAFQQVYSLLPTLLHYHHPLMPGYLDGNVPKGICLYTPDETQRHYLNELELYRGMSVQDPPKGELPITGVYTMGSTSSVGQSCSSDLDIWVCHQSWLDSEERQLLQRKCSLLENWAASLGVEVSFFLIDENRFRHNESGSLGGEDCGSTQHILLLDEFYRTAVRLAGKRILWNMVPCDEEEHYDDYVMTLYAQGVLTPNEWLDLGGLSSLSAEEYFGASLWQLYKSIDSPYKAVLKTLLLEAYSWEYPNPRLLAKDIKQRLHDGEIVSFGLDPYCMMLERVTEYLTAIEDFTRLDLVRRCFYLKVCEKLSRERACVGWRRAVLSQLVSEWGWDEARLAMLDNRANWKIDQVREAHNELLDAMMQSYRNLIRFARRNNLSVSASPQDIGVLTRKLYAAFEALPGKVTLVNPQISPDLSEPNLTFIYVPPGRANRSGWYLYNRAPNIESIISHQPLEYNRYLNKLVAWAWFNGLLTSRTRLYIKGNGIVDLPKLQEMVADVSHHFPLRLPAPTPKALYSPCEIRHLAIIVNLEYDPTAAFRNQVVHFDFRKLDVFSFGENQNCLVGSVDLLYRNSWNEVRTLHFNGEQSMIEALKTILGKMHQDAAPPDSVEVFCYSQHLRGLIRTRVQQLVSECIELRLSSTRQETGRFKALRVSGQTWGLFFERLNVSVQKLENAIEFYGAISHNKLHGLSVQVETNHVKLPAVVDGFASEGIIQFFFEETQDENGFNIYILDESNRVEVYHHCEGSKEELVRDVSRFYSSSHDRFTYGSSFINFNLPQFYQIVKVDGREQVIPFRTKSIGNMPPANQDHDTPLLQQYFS
# Compound: CC1(C)S[C@@H]2[C@H](NC(=O)[C@H](N)c3ccccc3)C(=O)N2[C@H]1C(=O)O [ampicillin]
# Experiment: log2 fold change of tryptic peptide abundance, ligand vs vehicle (limited proteolysis) (log2 ratio); higher = more trypsin-susceptible (destabilized)
# Conditions: ligand concentration: 10 uM; sample: E. coli crude lysate
row,Target,log2 fold change
1,"UniProt P02359 (peptide sequence: KREDVHR, peptide start residue: 137)",0.175
2,"UniProt P03030 (peptide sequence: HDLGLTETLHTPAGTER, peptide start residue: 144)",0.354
3,"UniProt P00903 (peptide sequence: GLANPLTVTR, peptide start residue: 117)",-0.102
4,"UniProt P08660 (peptide sequence: NQTLLTLHSLNMLHSR, peptide start residue: 307)",0.167
5,"UniProt P08245 (peptide sequence: LVYSTETGRIDEPK, peptide start residue: 8)",-0.336
6,"UniProt P00490 (peptide sequence: ENPQADRVPR, peptide start residue: 558)",-0.312
7,"UniProt P07117 (peptide sequence: FAEADAHYHSAPPSR, peptide start residue: 484)",-0.0131
8,"UniProt P06966 (peptide sequence: ISHVSVSQWER, peptide start residue: 32)",0.0701
9,"UniProt P00579 (peptide sequence: AVDKFEYR, peptide start residue: 415)",-0.178
10,"UniProt P02931 (peptide sequence: DGNKVDLYGK, peptide start residue: 29)",0.201
11,"UniProt P00936 (peptide sequence: RNNLSVSASPQDIGVLTR, peptide start residue: 403)",-0.194

# Part of the list above in another layout.
row	Target	log2 fold change
3	UniProt P00903 (peptide sequence: GLANPLTVTR, peptide start residue: 117)	-0.102
4	UniProt P08660 (peptide sequence: NQTLLTLHSLNMLHSR, peptide start residue: 307)	0.167
